The text below walks through data of publication doi:10.1101/697953.

The target in this assay is full-length chlamydial MreB (Chlamydia trachomatis serovar L2) (UniProt O84715). The assay can be described thus: two-hybrid.

Results are given in words; binding and its absence hold for the method and conditions named. Some binding calls cover weakened binding; strength is not graded here.

With “ΔN22 chlamydial MreB (from UniProt O84715 23-366) (domain or fragment)”, the binding result is “binds”.
